The source of these data is article PMC9998662.

Protein sequences, listed by entry. Tags and fused reporters are not part of them.
UniProt P70429: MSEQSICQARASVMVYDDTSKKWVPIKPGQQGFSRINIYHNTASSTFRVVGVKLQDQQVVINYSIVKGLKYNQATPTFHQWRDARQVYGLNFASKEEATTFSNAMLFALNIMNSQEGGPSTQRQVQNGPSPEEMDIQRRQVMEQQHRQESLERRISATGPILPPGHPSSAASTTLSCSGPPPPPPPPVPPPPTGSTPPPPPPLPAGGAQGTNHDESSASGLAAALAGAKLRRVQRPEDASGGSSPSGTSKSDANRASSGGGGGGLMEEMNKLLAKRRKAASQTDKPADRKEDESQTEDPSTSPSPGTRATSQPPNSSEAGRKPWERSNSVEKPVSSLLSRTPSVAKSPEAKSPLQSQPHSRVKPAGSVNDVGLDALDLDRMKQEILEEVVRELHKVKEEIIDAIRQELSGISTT

These are yes or no findings as the source states them, for the method shown. Binding seen in cells or lysates may run through a third protein. A yes stands for co-enrichment or nearness to the bait. Other partners may have been found.

In the test the target is EVL (endogenous, primary mouse cortical neuron cultures) (mouse (endogenous in primary cortical neuron cultures)) (UniProt P70429). The experiment in a line: affinity purification with mass spectrometry; endogenous EVL precipitated with mouse monoclonal anti-EVL (control: mouse IgG) from lysates of D11 primary mouse cortical neuron cultures; IP buffer 10% glycerol, 1% NP-40, 50 mM Tris pH 7.5, 200 mM NaCl, 2 mM MgCl2; overnight at 4°C; Protein A/G beads; in-gel digestion, LC-MS/MS.

B1: MIM/MTSS1 (endogenous, primary mouse cortical neuron cultures) (protein, UniProt Q8R1S4 1-759)
chain: MEAVIEKECSALGGLFQTIISDMKGSYPVWEDFINKAGKLQSQLRTTVVAAAAFLDAFQKVADMATNTRGGTREIGSALTRMCMRHRSIEAKLRQFSSALIDCLINPLQEQMEEWKKVANQLDKDHAKEYKKARQEIKNKSSDTLKLQKKAKKVDAQGRGDIQPQLDSALQDVNDKYLLLEETEKQAVRKALIEERGRFCTFISMLRPVIEEEISMLGEITHLQTISEDLKSLTMDPHKLPSSSEQVILDLKGSDYSWSYQTPPSSPSTTMSRKSSVCSSLNSVNSSDSRSSGSHSHSPSSHYRYRSSNLAQQAPVRLSSVSSHDSGFISQDAFQSKSPSPMPPEAANQLSNGFSHCSLSSESHAGPVGAGPFPHCLPASRLLPRVTSVHLPDYAHYYTIGPGMFPSSQIPSWKDWAKPGPYDQPLVNTLQRRKEKREPDSNGGGPTTTGGPPAGAEEAQRPRSMTVSAATRPGEEMAACEELTLALSRGLQLDVQRSSRDSLQCSSGYSTQTTTPCCSEDTIPSQVSDYDYFSVSGDQEAEQQEFDKSSTIPRNSDISQSYRRMFQAKRPASTAGLPTTLGPAMVTPGVATIRRTPSTKPSVRRGTIGAGPIPIKTPVIPVKTPTVPDLPGVLPSPPDGPEERGEHSPESPSAGEGPQGVSNIPSSLWSGQAPVNPPLPGPKPSIPEEHRQAIPESEAEDQERDPPSATVSPGPIPESDPADLSPRESPQGEDMLNAIRRGVKLKKTTTNDRSAPRFS
For the molecule B1, the binding entry is “binds”.
